Experimental data published in article PMC10642216.

By UniProt entry, the sequences of proteins in these tests, tags left out. Where a name states a change or a piece, a line headed by the entry shows the natural chain unless it says otherwise.
UniProt F4IE83: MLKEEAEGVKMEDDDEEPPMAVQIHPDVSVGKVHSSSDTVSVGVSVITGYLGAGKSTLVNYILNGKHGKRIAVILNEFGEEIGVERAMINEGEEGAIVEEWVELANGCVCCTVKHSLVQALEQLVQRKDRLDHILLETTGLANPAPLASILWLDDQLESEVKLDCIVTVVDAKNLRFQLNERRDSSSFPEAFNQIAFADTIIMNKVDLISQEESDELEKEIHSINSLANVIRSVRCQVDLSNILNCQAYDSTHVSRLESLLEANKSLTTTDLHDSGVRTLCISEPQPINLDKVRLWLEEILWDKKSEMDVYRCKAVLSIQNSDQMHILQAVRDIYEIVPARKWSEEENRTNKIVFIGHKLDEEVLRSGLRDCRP

Key:
[1] = biological target: T1, AtMAP1B (plastid-localized methionine aminopeptidase type I), yeast two-hybrid fusion (Arabidopsis thaliana) (UniProt Q9FV51); assay: two-hybrid; ProQuest Two-Hybrid System in yeast; reporters HIS3 (with 3AT), URA3 (5FOA) and lacZ (X-gal); full-length cDNAs in pDEST22 and pDEST32, reciprocal combinations as prey and bait for each pair
T1 sequence: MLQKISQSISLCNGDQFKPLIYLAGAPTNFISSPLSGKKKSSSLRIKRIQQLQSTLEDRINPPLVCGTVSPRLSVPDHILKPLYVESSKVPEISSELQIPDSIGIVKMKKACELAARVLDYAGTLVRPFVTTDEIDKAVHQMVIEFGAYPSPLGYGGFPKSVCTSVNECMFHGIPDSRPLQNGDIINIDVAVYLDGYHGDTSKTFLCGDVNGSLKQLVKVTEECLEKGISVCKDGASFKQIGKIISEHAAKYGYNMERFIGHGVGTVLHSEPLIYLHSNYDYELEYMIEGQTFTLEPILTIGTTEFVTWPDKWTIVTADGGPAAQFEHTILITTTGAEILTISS

[2] = biological target: T2, AtMAP1C (plastid-localized methionine aminopeptidase type I), yeast two-hybrid fusion (Arabidopsis thaliana) (UniProt Q9FV52); assay: as above
T2 sequence: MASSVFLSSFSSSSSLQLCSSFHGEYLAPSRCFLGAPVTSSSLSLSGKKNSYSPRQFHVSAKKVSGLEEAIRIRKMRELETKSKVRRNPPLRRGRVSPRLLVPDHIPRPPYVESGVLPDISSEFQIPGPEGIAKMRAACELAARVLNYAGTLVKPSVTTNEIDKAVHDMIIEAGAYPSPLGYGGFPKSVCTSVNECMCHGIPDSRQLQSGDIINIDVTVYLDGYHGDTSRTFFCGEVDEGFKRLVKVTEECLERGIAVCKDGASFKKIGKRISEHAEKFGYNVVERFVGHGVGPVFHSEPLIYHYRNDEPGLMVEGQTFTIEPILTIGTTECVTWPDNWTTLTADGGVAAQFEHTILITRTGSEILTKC

[3] = biological target: T3, AtMAP1D (plastid-localized methionine aminopeptidase type I), yeast two-hybrid fusion (Arabidopsis thaliana) (UniProt Q9FV50); assay: as above
T3 sequence: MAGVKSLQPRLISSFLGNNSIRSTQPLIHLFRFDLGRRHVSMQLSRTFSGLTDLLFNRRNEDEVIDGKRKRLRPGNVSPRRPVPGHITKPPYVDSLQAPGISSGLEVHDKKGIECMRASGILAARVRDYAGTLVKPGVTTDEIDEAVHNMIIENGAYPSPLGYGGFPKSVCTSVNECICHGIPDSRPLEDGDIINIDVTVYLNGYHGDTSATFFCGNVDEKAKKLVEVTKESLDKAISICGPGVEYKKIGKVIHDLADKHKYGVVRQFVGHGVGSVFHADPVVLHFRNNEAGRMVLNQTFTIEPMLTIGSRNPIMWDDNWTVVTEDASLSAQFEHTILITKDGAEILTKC

[4] = biological target: T4, AtMAP1A (methionine aminopeptidase type I), yeast two-hybrid fusion (Arabidopsis thaliana) (UniProt Q9SLN5); assay: as above
T4 sequence: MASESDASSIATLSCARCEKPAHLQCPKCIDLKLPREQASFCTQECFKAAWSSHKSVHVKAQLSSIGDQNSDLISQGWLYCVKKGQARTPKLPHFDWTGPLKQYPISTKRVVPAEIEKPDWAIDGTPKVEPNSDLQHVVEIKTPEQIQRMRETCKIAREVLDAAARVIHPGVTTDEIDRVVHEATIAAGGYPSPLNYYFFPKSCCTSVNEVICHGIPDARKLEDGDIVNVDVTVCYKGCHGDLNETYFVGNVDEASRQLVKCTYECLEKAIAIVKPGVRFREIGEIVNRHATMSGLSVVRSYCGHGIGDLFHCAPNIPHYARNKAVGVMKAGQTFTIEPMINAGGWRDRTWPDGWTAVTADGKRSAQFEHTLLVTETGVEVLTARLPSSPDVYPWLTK

[5] = biological target: T5, AtMAP2A (type II methionine aminopeptidase), yeast two-hybrid fusion (Arabidopsis thaliana) (UniProt Q9FV49); assay: as above
T5 sequence: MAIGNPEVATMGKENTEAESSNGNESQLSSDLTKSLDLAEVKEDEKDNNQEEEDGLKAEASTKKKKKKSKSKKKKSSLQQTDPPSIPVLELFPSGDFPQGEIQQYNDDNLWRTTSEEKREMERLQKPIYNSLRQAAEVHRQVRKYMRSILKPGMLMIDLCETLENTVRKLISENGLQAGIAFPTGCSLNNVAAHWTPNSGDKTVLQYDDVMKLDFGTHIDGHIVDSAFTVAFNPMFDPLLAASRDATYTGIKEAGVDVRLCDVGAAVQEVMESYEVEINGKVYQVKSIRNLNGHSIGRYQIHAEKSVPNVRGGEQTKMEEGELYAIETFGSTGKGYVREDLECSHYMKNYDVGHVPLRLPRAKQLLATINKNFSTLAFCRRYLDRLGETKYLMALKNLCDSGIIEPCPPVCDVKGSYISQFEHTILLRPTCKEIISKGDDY

[6] = biological target: T6, AtMAP2B (type II methionine aminopeptidase), yeast two-hybrid fusion (Arabidopsis thaliana) (UniProt Q56Y85); assay: as above
T6 sequence: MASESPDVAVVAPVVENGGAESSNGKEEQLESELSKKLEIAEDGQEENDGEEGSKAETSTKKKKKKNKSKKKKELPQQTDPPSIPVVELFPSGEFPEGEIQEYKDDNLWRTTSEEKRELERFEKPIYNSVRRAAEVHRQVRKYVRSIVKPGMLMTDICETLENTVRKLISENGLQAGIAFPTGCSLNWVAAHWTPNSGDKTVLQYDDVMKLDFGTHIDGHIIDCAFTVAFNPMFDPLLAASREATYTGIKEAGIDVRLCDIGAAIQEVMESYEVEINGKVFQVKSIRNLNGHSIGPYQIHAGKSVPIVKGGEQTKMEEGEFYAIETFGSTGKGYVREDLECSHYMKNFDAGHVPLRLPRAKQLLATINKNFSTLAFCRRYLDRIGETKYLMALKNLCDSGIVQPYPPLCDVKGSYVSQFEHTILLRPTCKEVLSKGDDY

[7] = biological target: T7, AtMAP1A fused with the N-terminal fragment of Venus (nVenus), BiFC construct (Arabidopsis thaliana) (UniProt Q9SLN5); assay: split reporter; BiFC in A. thaliana mesophyll protoplasts; AtZNG1-cCFP and AtMAP1A-nVenus co-transfected (5 µg of each plasmid), 16 h under weak light at room temperature, confocal microscopy
T7 sequence: T4 sequence

binding [1] | binding [2] | binding [3] | binding [4] | binding [5] | binding [6] | binding [7] | Substance
no binding | no binding | no binding | – | – | – | – | AtZNG2A2, yeast two-hybrid fusion (Arabidopsis thaliana)
– | – | – | binds | no binding | no binding | – | AtZNG1 (Zn-regulated GTPase metalloprotein activator 1), yeast two-hybrid fusion (Arabidopsis thaliana)
no binding | no binding | no binding | – | – | – | – | AtZNG2A1, yeast two-hybrid fusion (Arabidopsis thaliana)
– | – | – | – | – | – | binds | AtZNG1 fused to the C-terminal fragment of Cerulean (cCFP), BiFC construct (from UniProt F4IE83)

These are yes or no findings as the source states them, for the method shown. For some of these results: Binding calls can cover weak binding; strength is not graded here. Where a sequence is shown, tags or fusion partners need not be part of it. For some of these results: Binding seen in cells or lysates may run through a third protein.
